Experimental data as given in the supplement of paper PMC12819154, “High-throughput peptide-centric local stability assay extends protein–ligand identification to membrane proteins, tissues and bacteria” (Nature Structural & Molecular Biology, 2025).
The other results are listed elsewhere or left out. Most entries show no effect beyond the scatter of the controls.

The chains behind the UniProt entries cited, without tags or fusion partners. Where a name states a change or a piece, a line headed by the entry shows the natural chain unless it says otherwise.
UniProt Q53T94: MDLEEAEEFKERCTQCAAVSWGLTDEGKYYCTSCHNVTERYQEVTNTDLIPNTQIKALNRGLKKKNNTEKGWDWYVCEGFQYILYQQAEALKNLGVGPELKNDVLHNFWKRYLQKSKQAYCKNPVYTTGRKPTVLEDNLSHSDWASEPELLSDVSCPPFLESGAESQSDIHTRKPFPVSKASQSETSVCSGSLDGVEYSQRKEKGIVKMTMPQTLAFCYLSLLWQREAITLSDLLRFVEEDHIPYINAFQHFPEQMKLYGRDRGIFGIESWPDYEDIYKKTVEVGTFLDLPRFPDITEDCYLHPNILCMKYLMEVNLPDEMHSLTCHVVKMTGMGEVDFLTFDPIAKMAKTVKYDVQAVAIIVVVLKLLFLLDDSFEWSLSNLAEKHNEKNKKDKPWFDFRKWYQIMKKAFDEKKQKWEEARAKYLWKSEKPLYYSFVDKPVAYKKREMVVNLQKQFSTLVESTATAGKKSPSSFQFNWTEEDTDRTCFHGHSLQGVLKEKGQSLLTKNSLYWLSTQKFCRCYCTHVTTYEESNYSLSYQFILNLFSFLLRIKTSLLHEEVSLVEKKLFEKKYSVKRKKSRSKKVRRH
UniProt Q5T7B8: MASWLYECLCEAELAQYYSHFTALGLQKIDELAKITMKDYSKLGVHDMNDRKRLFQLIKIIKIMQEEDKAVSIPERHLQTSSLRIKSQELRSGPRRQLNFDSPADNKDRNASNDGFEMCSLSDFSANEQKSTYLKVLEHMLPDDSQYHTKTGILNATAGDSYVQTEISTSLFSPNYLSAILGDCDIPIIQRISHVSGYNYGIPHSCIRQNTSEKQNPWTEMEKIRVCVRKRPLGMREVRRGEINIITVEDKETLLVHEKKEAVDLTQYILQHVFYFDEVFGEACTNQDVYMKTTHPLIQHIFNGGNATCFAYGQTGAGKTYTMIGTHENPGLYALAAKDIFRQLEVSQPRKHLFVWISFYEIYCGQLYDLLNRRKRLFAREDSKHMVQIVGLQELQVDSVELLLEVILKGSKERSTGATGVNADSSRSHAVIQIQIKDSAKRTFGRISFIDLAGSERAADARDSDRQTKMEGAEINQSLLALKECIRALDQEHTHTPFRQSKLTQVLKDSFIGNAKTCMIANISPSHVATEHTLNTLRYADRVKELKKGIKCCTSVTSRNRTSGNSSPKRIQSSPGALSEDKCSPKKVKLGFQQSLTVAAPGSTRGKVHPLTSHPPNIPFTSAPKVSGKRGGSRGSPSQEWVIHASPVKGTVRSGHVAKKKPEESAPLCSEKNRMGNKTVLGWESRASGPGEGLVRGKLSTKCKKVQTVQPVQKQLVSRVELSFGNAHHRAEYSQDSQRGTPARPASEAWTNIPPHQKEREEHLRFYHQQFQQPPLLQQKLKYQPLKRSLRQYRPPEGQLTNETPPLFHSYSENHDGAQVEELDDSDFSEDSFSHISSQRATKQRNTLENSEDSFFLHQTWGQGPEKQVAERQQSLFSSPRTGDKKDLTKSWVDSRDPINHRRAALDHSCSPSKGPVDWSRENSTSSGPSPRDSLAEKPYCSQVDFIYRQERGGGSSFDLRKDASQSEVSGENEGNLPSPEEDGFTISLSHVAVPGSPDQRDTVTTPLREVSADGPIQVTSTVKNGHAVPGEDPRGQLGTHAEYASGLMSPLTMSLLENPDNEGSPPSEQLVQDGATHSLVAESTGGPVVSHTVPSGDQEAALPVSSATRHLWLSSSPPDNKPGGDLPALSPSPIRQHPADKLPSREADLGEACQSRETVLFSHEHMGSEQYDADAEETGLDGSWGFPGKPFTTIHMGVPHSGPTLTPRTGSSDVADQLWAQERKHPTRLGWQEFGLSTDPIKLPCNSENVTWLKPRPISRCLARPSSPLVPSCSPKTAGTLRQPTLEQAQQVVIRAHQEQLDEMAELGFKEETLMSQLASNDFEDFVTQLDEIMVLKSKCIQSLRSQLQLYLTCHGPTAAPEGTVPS
UniProt Q5JUX0, whole entry: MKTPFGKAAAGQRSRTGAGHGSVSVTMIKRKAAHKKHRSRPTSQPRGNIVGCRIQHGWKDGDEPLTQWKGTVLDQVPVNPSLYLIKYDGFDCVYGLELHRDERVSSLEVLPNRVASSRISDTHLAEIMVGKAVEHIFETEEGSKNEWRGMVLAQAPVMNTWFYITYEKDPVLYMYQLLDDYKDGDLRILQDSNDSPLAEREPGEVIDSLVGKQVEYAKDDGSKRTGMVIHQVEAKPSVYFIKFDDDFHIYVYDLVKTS
UniProt Q5HYJ3: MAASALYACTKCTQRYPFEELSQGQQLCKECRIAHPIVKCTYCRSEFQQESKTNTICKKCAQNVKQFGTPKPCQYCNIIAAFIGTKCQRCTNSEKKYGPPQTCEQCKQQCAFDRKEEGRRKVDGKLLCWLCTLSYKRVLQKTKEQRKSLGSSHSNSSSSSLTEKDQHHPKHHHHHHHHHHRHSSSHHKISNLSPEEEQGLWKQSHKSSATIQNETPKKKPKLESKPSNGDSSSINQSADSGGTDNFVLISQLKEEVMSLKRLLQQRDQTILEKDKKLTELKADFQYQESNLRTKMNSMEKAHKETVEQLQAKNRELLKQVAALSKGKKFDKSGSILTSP
UniProt Q5VWI1: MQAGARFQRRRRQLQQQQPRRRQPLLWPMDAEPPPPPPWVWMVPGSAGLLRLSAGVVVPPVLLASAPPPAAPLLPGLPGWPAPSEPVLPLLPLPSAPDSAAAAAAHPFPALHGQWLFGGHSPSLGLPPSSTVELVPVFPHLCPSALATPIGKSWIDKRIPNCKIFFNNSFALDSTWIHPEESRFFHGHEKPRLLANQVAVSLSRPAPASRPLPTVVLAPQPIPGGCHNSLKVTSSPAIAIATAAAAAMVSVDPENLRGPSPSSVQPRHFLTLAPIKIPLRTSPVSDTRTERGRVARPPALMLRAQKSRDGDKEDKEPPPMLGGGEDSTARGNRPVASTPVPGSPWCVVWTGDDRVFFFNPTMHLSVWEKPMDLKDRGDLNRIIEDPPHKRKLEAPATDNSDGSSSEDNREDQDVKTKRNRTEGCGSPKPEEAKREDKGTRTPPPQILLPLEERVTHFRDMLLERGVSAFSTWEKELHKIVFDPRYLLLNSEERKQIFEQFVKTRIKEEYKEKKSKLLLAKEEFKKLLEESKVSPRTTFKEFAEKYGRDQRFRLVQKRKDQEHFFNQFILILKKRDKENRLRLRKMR
UniProt Q5T8P6: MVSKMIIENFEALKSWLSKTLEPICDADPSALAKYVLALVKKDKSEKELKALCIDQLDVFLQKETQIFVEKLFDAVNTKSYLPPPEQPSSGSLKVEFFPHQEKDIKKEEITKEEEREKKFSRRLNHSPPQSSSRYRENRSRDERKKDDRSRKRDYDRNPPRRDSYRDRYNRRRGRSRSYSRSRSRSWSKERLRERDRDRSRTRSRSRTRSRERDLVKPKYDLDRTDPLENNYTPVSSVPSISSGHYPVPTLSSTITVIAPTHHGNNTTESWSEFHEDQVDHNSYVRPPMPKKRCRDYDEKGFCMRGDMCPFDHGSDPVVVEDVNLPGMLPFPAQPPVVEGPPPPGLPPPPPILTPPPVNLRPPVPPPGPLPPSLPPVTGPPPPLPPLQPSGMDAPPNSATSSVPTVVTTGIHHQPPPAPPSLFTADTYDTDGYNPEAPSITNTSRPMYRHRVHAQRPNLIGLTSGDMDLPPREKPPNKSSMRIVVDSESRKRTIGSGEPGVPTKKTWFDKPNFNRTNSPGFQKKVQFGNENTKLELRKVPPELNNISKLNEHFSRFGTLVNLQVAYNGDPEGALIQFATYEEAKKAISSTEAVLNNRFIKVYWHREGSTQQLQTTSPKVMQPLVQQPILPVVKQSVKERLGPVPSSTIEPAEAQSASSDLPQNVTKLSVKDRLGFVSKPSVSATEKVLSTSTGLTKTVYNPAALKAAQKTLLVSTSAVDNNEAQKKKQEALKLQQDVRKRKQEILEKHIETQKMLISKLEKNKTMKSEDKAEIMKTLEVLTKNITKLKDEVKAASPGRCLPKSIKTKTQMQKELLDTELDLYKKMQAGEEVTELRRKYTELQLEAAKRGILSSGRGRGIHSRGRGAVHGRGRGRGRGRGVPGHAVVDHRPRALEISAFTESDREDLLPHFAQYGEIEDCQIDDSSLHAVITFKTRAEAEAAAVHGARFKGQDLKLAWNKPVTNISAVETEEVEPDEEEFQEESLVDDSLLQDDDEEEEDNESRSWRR
UniProt Q5JWF2, whole entry: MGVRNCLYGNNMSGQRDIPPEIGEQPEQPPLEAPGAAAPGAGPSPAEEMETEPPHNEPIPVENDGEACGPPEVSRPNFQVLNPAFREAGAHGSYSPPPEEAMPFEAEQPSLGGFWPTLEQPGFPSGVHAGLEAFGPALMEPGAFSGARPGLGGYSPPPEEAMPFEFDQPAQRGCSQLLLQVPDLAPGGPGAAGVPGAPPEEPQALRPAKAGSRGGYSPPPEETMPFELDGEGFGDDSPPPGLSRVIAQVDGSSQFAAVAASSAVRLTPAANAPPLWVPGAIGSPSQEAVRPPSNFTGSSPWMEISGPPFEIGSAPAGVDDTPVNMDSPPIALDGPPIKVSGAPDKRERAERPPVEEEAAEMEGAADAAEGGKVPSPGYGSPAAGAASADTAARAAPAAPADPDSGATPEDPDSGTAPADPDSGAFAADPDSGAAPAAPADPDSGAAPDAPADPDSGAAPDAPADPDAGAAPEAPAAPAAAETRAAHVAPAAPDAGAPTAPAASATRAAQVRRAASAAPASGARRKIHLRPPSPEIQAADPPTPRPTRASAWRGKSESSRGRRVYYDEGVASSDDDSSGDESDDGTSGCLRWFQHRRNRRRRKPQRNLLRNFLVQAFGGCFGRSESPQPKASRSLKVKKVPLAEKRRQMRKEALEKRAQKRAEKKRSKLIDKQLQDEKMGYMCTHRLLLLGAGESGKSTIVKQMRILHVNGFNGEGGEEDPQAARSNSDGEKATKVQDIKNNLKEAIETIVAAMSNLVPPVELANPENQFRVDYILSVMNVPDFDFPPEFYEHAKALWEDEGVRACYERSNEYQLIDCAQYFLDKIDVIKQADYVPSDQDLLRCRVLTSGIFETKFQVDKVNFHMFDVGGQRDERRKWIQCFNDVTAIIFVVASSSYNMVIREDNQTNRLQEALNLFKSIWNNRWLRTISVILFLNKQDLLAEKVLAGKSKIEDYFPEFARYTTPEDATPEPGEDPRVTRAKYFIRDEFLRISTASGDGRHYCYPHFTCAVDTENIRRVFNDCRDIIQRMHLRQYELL
UniProt Q5T280: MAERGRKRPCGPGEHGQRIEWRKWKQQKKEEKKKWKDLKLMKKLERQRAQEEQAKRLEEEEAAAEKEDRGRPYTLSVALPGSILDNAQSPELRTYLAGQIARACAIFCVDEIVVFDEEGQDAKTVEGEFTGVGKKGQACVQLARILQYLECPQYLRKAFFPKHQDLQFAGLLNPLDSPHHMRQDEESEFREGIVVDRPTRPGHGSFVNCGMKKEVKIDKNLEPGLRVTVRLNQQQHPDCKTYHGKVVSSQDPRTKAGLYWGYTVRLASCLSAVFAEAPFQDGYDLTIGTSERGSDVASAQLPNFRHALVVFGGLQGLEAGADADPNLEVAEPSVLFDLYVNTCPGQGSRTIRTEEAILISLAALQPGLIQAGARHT
UniProt Q5SQN1: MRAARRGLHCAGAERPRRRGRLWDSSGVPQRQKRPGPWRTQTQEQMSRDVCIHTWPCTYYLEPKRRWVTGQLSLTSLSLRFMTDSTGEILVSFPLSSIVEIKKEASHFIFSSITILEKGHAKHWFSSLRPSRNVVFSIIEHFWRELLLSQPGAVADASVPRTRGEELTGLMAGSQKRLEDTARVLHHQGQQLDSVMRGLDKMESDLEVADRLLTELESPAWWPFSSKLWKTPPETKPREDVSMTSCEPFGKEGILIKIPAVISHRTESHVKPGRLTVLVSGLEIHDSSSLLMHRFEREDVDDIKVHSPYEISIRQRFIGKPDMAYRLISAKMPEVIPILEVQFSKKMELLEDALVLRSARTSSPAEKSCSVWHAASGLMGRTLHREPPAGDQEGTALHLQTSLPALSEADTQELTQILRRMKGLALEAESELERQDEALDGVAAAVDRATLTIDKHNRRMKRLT
UniProt Q5EE01: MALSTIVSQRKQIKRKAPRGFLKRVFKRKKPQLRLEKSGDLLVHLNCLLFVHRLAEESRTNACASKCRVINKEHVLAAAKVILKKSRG
UniProt Q53EU6: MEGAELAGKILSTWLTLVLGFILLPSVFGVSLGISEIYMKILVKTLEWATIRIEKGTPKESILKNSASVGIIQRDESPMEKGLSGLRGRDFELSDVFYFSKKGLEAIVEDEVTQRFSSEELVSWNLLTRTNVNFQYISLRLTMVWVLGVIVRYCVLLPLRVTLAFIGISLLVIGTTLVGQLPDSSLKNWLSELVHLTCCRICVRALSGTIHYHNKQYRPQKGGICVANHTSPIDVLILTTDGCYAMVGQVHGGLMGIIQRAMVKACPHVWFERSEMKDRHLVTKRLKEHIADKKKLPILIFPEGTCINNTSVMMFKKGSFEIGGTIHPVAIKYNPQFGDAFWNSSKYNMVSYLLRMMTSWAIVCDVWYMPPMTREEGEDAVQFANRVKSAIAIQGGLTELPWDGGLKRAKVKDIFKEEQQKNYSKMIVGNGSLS

Compound: CN[C@@H]1C[C@H]2O[C@@](C)([C@@H]1OC)n1c3ccccc3c3c4c(c5c6ccccc6n2c5c31)C(=O)NC4 [staurosporine]
Test: log2 fold change of tryptic peptide abundance, ligand vs vehicle (limited proteolysis) (log2 ratio); higher = more trypsin-susceptible (destabilized)
Settings: ligand concentration: 20 uM; sample: K562 cleared lysate; digestion: 4 min, 22 C (HT-PELSA RT4min, Orbitrap Astral)

Target	log2 fold change
CCDC58 (peptide sequence: IDASQTCKQLYESLMAAHASR, peptide start residue: 47) (UniProt Q4VC31)	0.381
DOCK11 (peptide sequence: LSKPGTAAELR, peptide start residue: 11) (UniProt Q5JSL3)	0.284
CMPK2 (peptide sequence: MENPGCHVVDASPSREK, peptide start residue: 417) (UniProt Q5EBM0)	0.539
SH3PXD2A (peptide sequence: RPAQPHRPSPASSLQR, peptide start residue: 585) (UniProt Q5TCZ1)	-0.266
TAF1B (peptide sequence: NSLYWLSTQK, peptide start residue: 509) (UniProt Q53T94)	0.044
ATAD3B (peptide sequence: LKEYEAAVEQLK, peptide start residue: 93) (UniProt Q5T9A4)	0.292
UniProt Q5T7B8 (peptide sequence: ASGPGEGLVR, peptide start residue: 687)	-0.2
EFCAB2 (peptide sequence: AFEVLDSAK, peptide start residue: 236) (UniProt Q5VUJ9)	-0.184
UniProt Q5T3J3 (peptide sequence: SPVLPSGHHLQIPAHAEVK, peptide start residue: 176)	0.276
UniProt Q5JUX0 (peptide sequence: GTVLDQVPVNPSLYLIK, peptide start residue: 74)	0.346
FAM76B (peptide sequence: SSATIQNETPK, peptide start residue: 207) (UniProt Q5HYJ3)	-0.199
FNBP1L (peptide sequence: MKDVYEK, peptide start residue: 427) (UniProt Q5T0N5)	0.291
UniProt Q5VWI1 (peptide sequence: GVSAFSTWEK, peptide start residue: 674)	0.145
ODF2 (peptide sequence: KHLQQEK, peptide start residue: 198) (UniProt Q5BJF6)	0.0965
MRPL2 (peptide sequence: KIRPLPPMK, peptide start residue: 285) (UniProt Q5T653)	-0.577
RBM26 (peptide sequence: ETQIFVEKLFDAVNTK, peptide start residue: 64) (UniProt Q5T8P6)	0.724
RC3H1 (peptide sequence: CVEELALYLKPLSSAR, peptide start residue: 102) (UniProt Q5TC82)	-0.25
ATXN7L2 (peptide sequence: APPPPPAPASSQK, peptide start residue: 113) (UniProt Q5T6C5)	0.327
GNAS (peptide sequence: TISVILFLNKQDLLAEK, peptide start residue: 927) (UniProt Q5JWF2)	0.326
UniProt Q5T280 (peptide sequence: HQDLQFAGLLNPLDSPHHMR, peptide start residue: 163)	0.393
UniProt Q5THK1 (peptide sequence: NGTLISISQQK, peptide start residue: 2073)	0.353
SPECC1 (peptide sequence: ASESDAEIKDMK, peptide start residue: 651) (UniProt Q5M775)	0.392
UniProt Q49AM3 (peptide sequence: EAAAVFQETLR, peptide start residue: 391)	0.627
SNAP47 (peptide sequence: SCSVWHAASGLMGR, peptide start residue: 368) (UniProt Q5SQN1)	0.389
UniProt Q5EE01 (peptide sequence: SGDLLVHLNCLLFVHR, peptide start residue: 38)	-0.0458
COQ5 (peptide sequence: VYQVFESVAK, peptide start residue: 68) (UniProt Q5HYK3)	-0.114
GPAT3 (peptide sequence: VKDIFKEEQQK, peptide start residue: 411) (UniProt Q53EU6)	-0.0182
EPC2 (peptide sequence: LQCFQPR, peptide start residue: 525) (UniProt Q52LR7)	0.159

Given field by field: part of the list above
ATAD3B (peptide sequence: LKEYEAAVEQLK, peptide start residue: 93) (UniProt Q5T9A4)
  log2 fold change: 0.292
ATXN7L2 (peptide sequence: APPPPPAPASSQK, peptide start residue: 113) (UniProt Q5T6C5)
  log2 fold change: 0.327
